{"sequences": {"note": "Protein sequences, listed by entry. Tags and fused reporters are not part of them.", "UniProt Q9Y6Q9": "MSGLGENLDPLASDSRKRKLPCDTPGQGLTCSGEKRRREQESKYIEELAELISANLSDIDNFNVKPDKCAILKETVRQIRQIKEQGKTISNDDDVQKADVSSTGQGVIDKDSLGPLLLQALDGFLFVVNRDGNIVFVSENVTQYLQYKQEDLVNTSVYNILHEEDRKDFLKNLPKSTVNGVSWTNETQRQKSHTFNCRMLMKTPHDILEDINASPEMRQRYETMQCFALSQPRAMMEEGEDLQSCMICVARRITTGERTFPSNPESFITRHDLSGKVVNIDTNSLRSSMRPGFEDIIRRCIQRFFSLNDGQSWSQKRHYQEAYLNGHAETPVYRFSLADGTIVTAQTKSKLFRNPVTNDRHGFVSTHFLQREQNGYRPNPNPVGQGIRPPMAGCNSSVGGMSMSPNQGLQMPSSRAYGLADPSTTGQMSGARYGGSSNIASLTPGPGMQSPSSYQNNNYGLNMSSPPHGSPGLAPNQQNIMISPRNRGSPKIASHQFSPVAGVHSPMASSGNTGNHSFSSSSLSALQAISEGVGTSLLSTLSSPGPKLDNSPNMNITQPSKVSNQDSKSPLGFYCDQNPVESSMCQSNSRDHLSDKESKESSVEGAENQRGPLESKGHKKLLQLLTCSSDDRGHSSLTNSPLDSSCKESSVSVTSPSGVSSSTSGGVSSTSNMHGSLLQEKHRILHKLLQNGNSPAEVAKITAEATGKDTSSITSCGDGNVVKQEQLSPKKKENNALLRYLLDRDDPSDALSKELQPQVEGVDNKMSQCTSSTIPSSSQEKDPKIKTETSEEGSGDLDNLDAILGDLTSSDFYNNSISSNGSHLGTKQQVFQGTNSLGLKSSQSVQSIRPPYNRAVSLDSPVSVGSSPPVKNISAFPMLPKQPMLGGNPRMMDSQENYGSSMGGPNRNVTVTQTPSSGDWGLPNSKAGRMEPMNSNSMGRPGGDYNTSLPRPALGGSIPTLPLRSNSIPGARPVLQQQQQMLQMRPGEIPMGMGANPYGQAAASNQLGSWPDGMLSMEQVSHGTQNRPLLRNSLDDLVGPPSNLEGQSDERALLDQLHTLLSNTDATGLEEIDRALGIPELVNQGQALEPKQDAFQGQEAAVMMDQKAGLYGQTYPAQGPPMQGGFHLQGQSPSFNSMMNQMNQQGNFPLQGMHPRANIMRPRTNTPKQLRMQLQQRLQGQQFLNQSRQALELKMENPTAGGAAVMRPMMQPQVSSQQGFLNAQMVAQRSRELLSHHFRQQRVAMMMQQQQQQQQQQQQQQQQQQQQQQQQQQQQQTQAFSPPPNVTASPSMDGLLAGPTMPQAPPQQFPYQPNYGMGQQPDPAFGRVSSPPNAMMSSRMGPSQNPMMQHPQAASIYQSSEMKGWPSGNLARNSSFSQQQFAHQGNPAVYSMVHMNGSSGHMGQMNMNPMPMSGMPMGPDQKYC"}, "source": "paper PMC9616898", "biological_target": "T1, endogenous coactivator-associated arginine methyltransferase 1 (CARM1) (human (endogenous in MKN28 and MKN1)) (UniProt Q86X55)", "T1 sequence": "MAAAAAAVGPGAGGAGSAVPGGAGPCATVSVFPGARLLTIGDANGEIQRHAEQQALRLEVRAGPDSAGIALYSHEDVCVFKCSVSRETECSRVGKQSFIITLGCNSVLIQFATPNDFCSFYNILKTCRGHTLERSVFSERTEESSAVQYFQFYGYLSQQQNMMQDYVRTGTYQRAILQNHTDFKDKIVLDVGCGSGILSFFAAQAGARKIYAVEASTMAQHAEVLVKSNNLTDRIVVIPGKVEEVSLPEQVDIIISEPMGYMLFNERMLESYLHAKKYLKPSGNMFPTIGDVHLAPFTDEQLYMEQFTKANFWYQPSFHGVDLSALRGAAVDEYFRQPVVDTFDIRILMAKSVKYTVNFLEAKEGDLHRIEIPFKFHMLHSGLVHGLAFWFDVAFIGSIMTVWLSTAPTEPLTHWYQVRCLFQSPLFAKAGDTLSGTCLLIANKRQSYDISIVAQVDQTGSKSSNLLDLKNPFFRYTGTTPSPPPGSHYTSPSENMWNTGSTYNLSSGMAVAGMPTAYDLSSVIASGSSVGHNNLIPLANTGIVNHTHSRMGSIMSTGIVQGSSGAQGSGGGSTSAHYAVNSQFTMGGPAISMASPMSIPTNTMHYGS", "assay": "co-IP; endogenous CARM1 and ACTR in control and exon 7-deleted MKN1 cells, in MKN28 cells overexpressing LRRFIP2 variant 2 or 3, and in MKN1 cells overexpressing LRRFIP2 variant 2; IP buffer (50 mM Tris pH 7.4, 150 mM NaCl, 1% Triton X-100, 0.5% sodium deoxycholate, 2 mM EDTA, 10% glycerol), Dynabeads", "note": "No constants are given. Whether binding was seen depends on the method and setting. Binding seen in cells or lysates may run through a third protein. Some results given as binding are weak or reduced against the parent protein; the word gives no strength."}
{"substance": "endogenous ACTR/SRC3/AIB1/NCOA3 (p160 coactivator) (from UniProt Q9Y6Q9 1-1424)", "values": [{"measurement": "binding", "value": "binds"}]}
